Data as given in the supplement of paper PMC11451515.

Assays:
SEM cells [1] = test: AUC of viability dose-response curve (% viability x log10 dose units); higher = less sensitive; conditions: 48 h
Summary of the method: (§1)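 Library compounds in DMSO were applied for 48 h at 37°C at 11 threefold doses (47 μM to 0.79 nM) to medium-adapted leukemia cells in 1536-well plates holding 500 or 1000 cells/well. Luminescence from CellTiter-Glo One was normalised plate by plate against DMSO and cell-free wells. Area under the curve came from trapezoidal integration of a log-logistic fit, after scaling curves that rose above full viability and discarding those that failed quality control. The fit had four parameters and used log10 doses.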

P12-Ichikawa [2] = test: as above; conditions: 48 h
Summary of the method: as §1

NOMO1 [3] = test: as above; conditions: 48 h
Summary of the method: as §1

SEM cells [4] = test: cell viability relative to DMSO control; higher = less cytotoxic; conditions: 48 h
Summary of the method: (§2)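 Viability, reported as a per-plate percentage of DMSO wells with cell-free wells as background, came from CellTiter-Glo One luminescence. Reading took place after 48 h at 37°C. Before that, NOMO1 or SEM (500 cells/well) or P12-Ichikawa (1000 cells/well) leukemia cells, adapted for at least four passages in each medium, were seeded in 1536-well plates (5 μl) and pin-dosed with library compounds in DMSO, 47 μM to 0.79 nM over 11 threefold points.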

P12-Ichikawa [5] = test: as above; conditions: RPMI 5 mM glucose + 10% dialyzed FBS, 48 h
Summary of the method: as §2

NOMO1 [6] = test: as above; conditions: 48 h
Summary of the method: as §2

O[C@@H]1C\C(=C/C(O)C1O)C(O)=O (stereo partly specified)
Conditions | AUC of viability dose-response curve | cell viability [%]
NOMO1 [3], HPLM + 10% dialyzed FBS | 460 | –
NOMO1 [3], RPMI 5 mM glucose + 10% FBS | 464 | –
NOMO1 [3], RPMI 5 mM glucose + 10% dialyzed FBS | 455 | –
P12-Ichikawa [2], HPLM + 10% dialyzed FBS | 466 | –
P12-Ichikawa [2], RPMI 5 mM glucose + 10% FBS | 462 | –
P12-Ichikawa [2], RPMI 5 mM glucose + 10% dialyzed FBS | 461 | –
P12-Ichikawa [5], 0.000781 µM | – | 120
P12-Ichikawa [5], 0.00234 µM | – | 120
P12-Ichikawa [5], 0.00702 µM | – | 129
P12-Ichikawa [5], 0.0211 µM | – | 134
P12-Ichikawa [5], 0.0632 µM | – | 124
P12-Ichikawa [5], 0.19 µM | – | 119
P12-Ichikawa [5], 0.569 µM | – | 122
P12-Ichikawa [5], 1.71 µM | – | 115
P12-Ichikawa [5], 5.12 µM | – | 119
P12-Ichikawa [5], 15.4 µM | – | 120
P12-Ichikawa [5], 46.1 µM | – | 117
SEM cells [1], HPLM + 10% dialyzed FBS | 471 | –
SEM cells [1], RPMI 5 mM glucose + 10% FBS | 474 | –
SEM cells [1], RPMI 5 mM glucose + 10% dialyzed FBS | 470 | –

cell viability [%]
Conditions | HPLM + 10% dialyzed FBS | RPMI 5 mM glucose + 10% FBS | RPMI 5 mM glucose + 10% dialyzed FBS
NOMO1 [6], 0.000781 µM | 128 | 115 | 130
NOMO1 [6], 0.00234 µM | 123 | 116 | 121
NOMO1 [6], 0.00702 µM | 116 | 118 | 123
NOMO1 [6], 0.0211 µM | 133 | 135 | 121
NOMO1 [6], 0.0632 µM | 135 | 132 | 132
NOMO1 [6], 0.19 µM | 120 | 115 | 124
NOMO1 [6], 0.569 µM | 140 | 121 | 128
NOMO1 [6], 1.71 µM | 117 | 120 | 96.7
NOMO1 [6], 5.12 µM | 114 | 111 | 126
NOMO1 [6], 15.4 µM | 100 | 115 | 118
NOMO1 [6], 46.1 µM | 124 | 113 | 98.9
SEM cells [4], 0.000781 µM | 104 | 110 | 109
SEM cells [4], 0.00234 µM | 105 | 108 | 119
SEM cells [4], 0.00702 µM | 116 | 125 | 114
SEM cells [4], 0.0211 µM | 116 | 125 | 106
SEM cells [4], 0.0632 µM | 87.9 | 107 | 92.6
SEM cells [4], 0.19 µM | 132 | 117 | 107
SEM cells [4], 0.569 µM | 110 | 106 | 116
SEM cells [4], 1.71 µM | 132 | 115 | 113
SEM cells [4], 5.12 µM | 116 | 115 | 101
SEM cells [4], 15.4 µM | 106 | 114 | 100
SEM cells [4], 46.1 µM | 98 | 112 | 117
